## Library screen at single concentrations

Amino acid sequences for entries named in this document (tags omitted). Residues count along the entry.
UniProt P9WNZ1, whole entry: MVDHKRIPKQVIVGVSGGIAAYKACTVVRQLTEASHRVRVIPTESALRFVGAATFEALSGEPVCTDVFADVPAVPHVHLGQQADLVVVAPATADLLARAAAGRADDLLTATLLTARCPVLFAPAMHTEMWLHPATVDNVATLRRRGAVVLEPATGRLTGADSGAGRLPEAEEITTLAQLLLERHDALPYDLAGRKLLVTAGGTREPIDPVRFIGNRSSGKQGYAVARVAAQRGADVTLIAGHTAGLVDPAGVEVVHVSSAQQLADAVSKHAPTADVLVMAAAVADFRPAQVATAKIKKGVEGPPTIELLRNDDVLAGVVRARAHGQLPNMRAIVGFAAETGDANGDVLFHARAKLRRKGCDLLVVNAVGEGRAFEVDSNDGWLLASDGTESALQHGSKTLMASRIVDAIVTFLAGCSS
UniProt A4I591, 1-473: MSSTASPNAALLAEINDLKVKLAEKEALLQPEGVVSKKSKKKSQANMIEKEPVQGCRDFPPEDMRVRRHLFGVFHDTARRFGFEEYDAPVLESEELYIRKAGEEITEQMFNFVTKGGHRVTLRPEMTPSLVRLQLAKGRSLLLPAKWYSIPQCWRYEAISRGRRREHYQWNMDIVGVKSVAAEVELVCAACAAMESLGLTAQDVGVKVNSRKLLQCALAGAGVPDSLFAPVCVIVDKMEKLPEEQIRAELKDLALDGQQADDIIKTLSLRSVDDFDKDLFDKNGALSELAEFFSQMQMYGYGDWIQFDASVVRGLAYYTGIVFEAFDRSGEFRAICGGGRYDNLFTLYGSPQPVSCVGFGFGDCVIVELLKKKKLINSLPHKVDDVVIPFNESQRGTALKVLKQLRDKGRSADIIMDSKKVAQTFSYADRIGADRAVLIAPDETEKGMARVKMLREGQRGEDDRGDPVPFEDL

Results are given as percent effect.
The record does not define 0% and 100%; most values in the screen are far below 50% and negative numbers occur (in some assays of this library far below -100).
Compounds were drawn at random from those tested, without regard to their results.
Two or more numbers in one place are separate tests of the same structure; such repeats can differ widely.

CoaBC: 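Coenzyme A biosynthesis protein CoaBC, Mycobacterium tuberculosis (UniProt P9WNZ1). Enzyme assay of CoaBC with a phosphate dye (Biomol Green) read at 650 nm. Tested at 30 µM. Higher reads as stronger inhibition, judged from the few compounds that gave an IC50. Most strong results did not repeat in a second test. About 67,000 compounds were tested under these conditions; 0.06% (about 40) showed 50% or more at least once.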
LiHisRS: 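Enzyme assay of histidyl-tRNA synthetase; the read-out is not stated. Target: Histidine-tRNA ligase, Leishmania infantum (UniProt A4I591). Compounds at 30 µM. Direction is inferred from retests: higher values go with stronger inhibition. The assay is labelled LdHisRS but filed under L. infantum. Of about 69,000 compounds tested this way, about 410 (0.6%) reached 50% or more in at least one test.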
Leishmania in macrophages: 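Cell assay of Leishmania donovani living inside macrophages; the read-out is not stated. Concentration: 30 µM. Higher reads as stronger inhibition (inferred: compounds with an IC50 in retests scored well above the rest). Size under these conditions: about 69,000 compounds, about 1,000 of them at 50% or above in at least one test.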

Result for Cc1cc(C(=O)N2CCCC3(CNC(=O)O3)C2)c2c(C)nn(C)c2n1 (stereo not given) was CoaBC: 0%; LiHisRS: 6.579%; Leishmania in macrophages: -3.267%.
Result for Cc1noc(NC(=O)c2ccc(F)cc2)n1 was CoaBC: 1.173%; LiHisRS: 14.91%; Leishmania in macrophages: 22.1%.
Result for COC(=O)N1CCC(NC2CCSCC2)C1 (stereo not given) was CoaBC: 3.415%; LiHisRS: -11.67%; Leishmania in macrophages: 13.14%.
Result for CCc1cc(N[C@@H](CC(C)C)C(N)=O)n2nc(C)c(C)c2n1 was CoaBC: -1.241%; LiHisRS: 21.28%; Leishmania in macrophages: 12.39%.
Result for [H][C@@]12CCCO[C@]1([H])[C@H](OCc1cccnc1)CN2C(=O)c1ccc(C)o1 was Leishmania in macrophages: 19.15%.
Result for CN(C)C(=O)CN1C(=O)CCC12CCN(Cc1ccsc1)CC2 was CoaBC: 3.529%; LiHisRS: 21.1%.
Result for CCOC(=O)CNc1nc(C(C)(C)C)nc2c1cnn2C was CoaBC: 0.7371%; LiHisRS: 10.75%; Leishmania in macrophages: -0.00191%.
Result for CN(Cc1nnc(C2CCC2)o1)C(C(N)=O)c1cccc(F)c1 (stereo not given) was CoaBC: 1.266%; LiHisRS: 18.42%; Leishmania in macrophages: 22.62% & -1.19%.
Result for O=C(O)C(F)(F)F.[H][C@@]12COC[C@@H](C(=O)N3CCCCO3)[C@]1([H])CN(Cc1c(C)noc1C)C2 was Leishmania in macrophages: -11.12%.
Result for Cc1cnn(CC(C)NCc2ccc(C#N)cc2)c1 (stereo not given) was CoaBC: 2.664%; LiHisRS: 15.71%; Leishmania in macrophages: -40.65%.
Result for O=S(=O)(C1CC1)N1CCOC2(CCCN(c3cccc(F)c3)C2)C1 (stereo not given) was CoaBC: 0.6148%; LiHisRS: 20%; Leishmania in macrophages: -4.596%.
Result for Cc1nnsc1C(=O)N1CCC2(CC1)c1nc[nH]c1CCN2CC(C)C was CoaBC: -7.589%; LiHisRS: 16.5%; Leishmania in macrophages: 31.97%.
Result for O=C(NCC1(O)CCC1)c1cccc(-n2cccn2)c1 was CoaBC: 1.446%; LiHisRS: 12.09%; Leishmania in macrophages: 0.6562%.
Result for CCCC1SCCN1C(=O)c1ccc(-n2ncc(C#N)c2N)cc1 (stereo not given) was LiHisRS: 28.57%; Leishmania in macrophages: -14.66%.
Result for COc1cc2c(cc1CN1CCc3sccc3C1C)OCCO2 (stereo not given) was CoaBC: 10.67%; LiHisRS: 21.28%; Leishmania in macrophages: 31.91%.
Result for CCCc1nnc(N2CCC3(CC2)CN(C)C(=O)O3)o1 was CoaBC: 1.486%; LiHisRS: 0.885%; Leishmania in macrophages: 11.36%.
Result for Cn1ccc(C(=O)NC2CCC23CCN(CC2CCOCC2)CC3)c1 (stereo not given) was CoaBC: -10.18%; LiHisRS: 20.21%.
Result for Cc1ccc(N2CCC3(CCN(Cc4csc(C)n4)CC3)CC2)nn1 was CoaBC: -0.2037%; LiHisRS: -44.74%; Leishmania in macrophages: 15.37%.
Result for Cc1nc(CN2CCCC(NCc3cccc(C(N)=O)c3)C2)no1 (stereo not given) was CoaBC: 2.551%; LiHisRS: 16.36%; Leishmania in macrophages: 23.15%.
Result for CC(C)n1nc(CN2CCCC2)c2c1CN(CC1CC1)CC2 was CoaBC: 1.951%; LiHisRS: 13.21%.
Result for CNC(=O)[C@@H]1C[C@@H](NC(=O)Cc2cccs2)CN1C1CCOCC1 was CoaBC: 1.028%; LiHisRS: 4.167%; Leishmania in macrophages: 4.476%.

Repeated from the top, 2 entries:

Result for Cc1cc(C(=O)N2CCCC3(CNC(=O)O3)C2)c2c(C)nn(C)c2n1 (stereo not given) was CoaBC: 0%; LiHisRS: 6.579%; Leishmania in macrophages: -3.267%.
Result for Cc1noc(NC(=O)c2ccc(F)cc2)n1 was CoaBC: 1.173%; LiHisRS: 14.91%; Leishmania in macrophages: 22.1%.

Source: ChEMBL document CHEMBL3988442, “University of Dundee, Small-Polar-MMV Screening Library” (2021).